Source: article PMC5084709
Results are given in words; binding and its absence hold for the method and conditions named. In cells and extracts the contact can be indirect.

Biological target: T1, RPTP69d full length (Drosophila) (UniProt P16620)
T1 sequence: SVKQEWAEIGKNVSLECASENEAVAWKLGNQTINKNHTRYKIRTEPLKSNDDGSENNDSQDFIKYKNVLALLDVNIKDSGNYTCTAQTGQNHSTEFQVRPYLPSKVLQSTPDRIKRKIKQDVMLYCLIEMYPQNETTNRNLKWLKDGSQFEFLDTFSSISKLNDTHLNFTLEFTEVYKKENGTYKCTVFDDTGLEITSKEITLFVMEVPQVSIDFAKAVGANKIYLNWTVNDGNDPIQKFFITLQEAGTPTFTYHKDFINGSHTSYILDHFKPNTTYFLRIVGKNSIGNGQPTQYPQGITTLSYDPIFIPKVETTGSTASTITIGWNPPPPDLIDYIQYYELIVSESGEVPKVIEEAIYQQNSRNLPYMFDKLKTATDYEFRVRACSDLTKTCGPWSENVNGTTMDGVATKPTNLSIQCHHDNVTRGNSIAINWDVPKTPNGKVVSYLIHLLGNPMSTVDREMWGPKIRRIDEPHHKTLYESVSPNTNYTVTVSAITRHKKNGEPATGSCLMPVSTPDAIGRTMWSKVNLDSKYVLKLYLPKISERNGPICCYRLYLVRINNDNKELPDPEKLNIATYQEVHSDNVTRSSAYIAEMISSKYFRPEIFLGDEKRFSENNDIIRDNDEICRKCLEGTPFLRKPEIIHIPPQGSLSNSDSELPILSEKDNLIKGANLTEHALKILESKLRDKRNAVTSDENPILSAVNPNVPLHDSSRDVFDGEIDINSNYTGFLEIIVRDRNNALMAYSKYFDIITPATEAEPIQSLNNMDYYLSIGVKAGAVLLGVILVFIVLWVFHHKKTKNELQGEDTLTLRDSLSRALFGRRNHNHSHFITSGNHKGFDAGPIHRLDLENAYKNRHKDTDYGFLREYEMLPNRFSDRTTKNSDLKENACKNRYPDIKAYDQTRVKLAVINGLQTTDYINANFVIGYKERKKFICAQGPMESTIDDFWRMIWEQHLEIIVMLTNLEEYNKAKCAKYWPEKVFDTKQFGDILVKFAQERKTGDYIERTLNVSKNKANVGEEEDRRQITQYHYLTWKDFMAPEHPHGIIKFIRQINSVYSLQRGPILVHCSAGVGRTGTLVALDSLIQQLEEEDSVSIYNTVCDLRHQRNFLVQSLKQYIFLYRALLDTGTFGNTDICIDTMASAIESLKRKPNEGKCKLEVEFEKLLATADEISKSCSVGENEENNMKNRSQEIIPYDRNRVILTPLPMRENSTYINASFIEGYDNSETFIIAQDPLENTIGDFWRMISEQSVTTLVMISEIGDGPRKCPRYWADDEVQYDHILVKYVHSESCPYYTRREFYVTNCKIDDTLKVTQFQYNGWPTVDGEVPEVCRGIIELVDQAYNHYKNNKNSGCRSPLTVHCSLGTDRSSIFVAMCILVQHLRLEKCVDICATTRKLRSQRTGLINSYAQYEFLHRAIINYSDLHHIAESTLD
Experiment: co-IP; immunoprecipitation of RPTP69d from S2 cells in the presence of Slit, without Robo3

B1: Slit (ligand, UniProt P24014 37-1504)
chain: EPYSGGFGSSAVSSGGLGSVGIHIPGGGVGVITEARCPRVCSCTGLNVDCSHRGLTSVPRKISADVERLELQGNNLTVIYETDFQRLTKLRMLQLTDNQIHTIERNSFQDLVSLERLRLNNNRLKAIPENFVTSSASLLRLDISNNVITTVGRRVFKGAQSLRSLQLDNNQITCLDEHAFKGLVELEILTLNNNNLTSLPHNIFGGLGRLRALRLSDNPFACDCHLSWLSRFLRSATRLAPYTRCQSPSQLKGQNVADLHDQEFKCSGLTEHAPMECGAENSCPHPCRCADGIVDCREKSLTSVPVTLPDDTTELRLEQNFITELPPKSFSSFRRLRRIDLSNNNISRIAHDALSGLKQLTTLVLYGNKIKDLPSGVFKGLGSLQLLLLNANEISCIRKDAFRDLHSLSLLSLYDNNIQSLANGTFDAMKSIKTVHLAKNPFICDCNLRWLADYLHKNPIETSGARCESPKRMHRRRIESLREEKFKCSWDELRMKLSGECRMDSDCPAMCHCEGTTVDCTGRGLKEIPRDIPLHTTELLLNDNELGRISSDGLFGRLPHLVKLELKRNQLTGIEPNAFEGASHIQELQLGENKIKEISNKMFLGLHQLKTLNLYDNQISCVMPGSFEHLNSLTSLNLASNPFNCNCHLAWFAEWLRKKSLNGGAARCGAPSKVRDVQIKDLPHSEFKCSSENSEGCLGDGYCPPSCTCTGTVVRCSRNQLKEIPRGIPAETSELYLESNEIEQIHYERIRHLRSLTRLDLSNNQITILSNYTFANLTKLSTLIISYNKLQCLQRHALSGLNNLRVLSLHGNRISMLPEGSFEDLKSLTHIALGSNPLYCDCGLKWFSDWIKLDYVEPGIARCAEPEQMKDKLILSTPSSSFVCRGRVRNDILAKCNACFEQPCQNQAQCVALPQREYQCLCQPGYHGKHCEFMIDACYGNPCRNNATCTVLEEGRFSCQCAPGYTGARCETNIDDCLGEIKCQNNATCIDGVESYKCECQPGFSGEFCDTKIQFCSPEFNPCANGAKCMDHFTHYSCDCQAGFHGTNCTDNIDDCQNHMCQNGGTCVDGINDYQCRCPDDYTGKYCEGHNMISMMYPQTSPCQNHECKHGVCFQPNAQGSDYLCRCHPGYTGKWCEYLTSISFVHNNSFVELEPLRTRPEANVTIVFSSAEQNGILMYDGQDAHLAVELFNGRIRVSYDVGNHPVSTMYSFEMVADGKYHAVELLAIKKNFTLRVDRGLARSIINEGSNDYLKLTTPMFLGGLPVDPAQQAYKNWQIRNLTSFKGCMKEVWINHKLVDFGNAQRQQKITPGCALLEGEQQEEEDDEQDFMDETPHIKEEPVDPCLENKCRRGSRCVPNSNARDGYQCKCKHGQRGRYCDQGEGSTEPPTVTAASTCRKEQVREYYTENDCRSRQPLKYAKCVGGCGNQCCAAKIVRRRKVRMVCSNNRKYIKNLDIVRKCGCTKKCY
  binding: no binding
